PubChem BioAssay AID1508587 – Peter MacCallum Cancer Centre – 2020

- Aim: 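Follow-up of vemurafenib sensitisers scored by lactate made per cell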 (follow-up of hits)
- System: human WM266.4 melanoma cells with a BRAF V600 mutation
- Knock-down reagent: single siRNA against human genes, 25 nM
- Duration: 96 h
- Treatment: vemurafenib 300 nM (about IC25), given 48 h after transfection for 48 h
- Measured: 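Medium lactate read by absorbance over DAPI-counted nuclei; ratio with versus without vemurafenib, set against non-targeting siRNA, averaged over 2 replicates; cell number also recorded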
- Reading the numbers: lactate per cell, drug vs no drug: higher = less drug-induced drop in lactate per cell; lactate per cell with vemurafenib: higher = more lactate per cell under drug; lactate per cell without drug: higher = more lactate per cell without drug; cell growth with vemurafenib and cell growth without drug: higher = more cell growth over 48 h
- Active means: 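Enhancer call for any duplex whose drug versus no-drug per-cell lactate ratio is below 0.55 (2 SD beneath non-targeting average); genes confirmed when at least 2 of their 4 duplexes qualify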
The deposit covers about 1,600 reagents; below is a part drawn at random. In the full data, 623 (39%) were called active. 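Calls are for each duplex; lactate ratios contain extreme outliers.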 A number with no mark means an inactive call. Reagents against one gene are numbered here.

no.	Gene	reagent	lactate per cell, drug vs no drug	lactate per cell with vemurafenib	lactate per cell without drug	cell growth with vemurafenib	cell growth without drug
1	MIER3	1	0.8	2.01	1.59	0.41	0.44
2	MIER3	2	0.52 (active)	1.16	1.38	0.61	0.42
3	MIER3	3	0.2 (active)	0.36	1.27	0.08	0.42
4	MIER3	4	0.62	1.64	1.64	0.49	0.44
5	ZFHX2	1	0.68	1.31	1.22	0.43	0.47
6	ZFHX2	2	0.54 (active)	0.9	1.07	0.57	0.57
7	ZFHX2	3	0.4 (active)	0.99	1.52	0.18	0.2
8	ZFHX2	4	0.46 (active)	0.72	0.98	0.83	0.54
9	ELMO2	1	0.54 (active)	1.07	1.34	0.02	0.16
10	ELMO2	2	0.57	2.58	3.04	0.15	0.02
11	ELMO2	3	0.5 (active)	0.7	0.92	0.56	0.33
12	ELMO2	4	0.62	1.23	1.28	0.46	0.3
13	CYSTM1	1	0.64	0.94	1	0.03	0.61
14	CYSTM1	2	0.55	0.6	0.75	0.18	0.33
15	CYSTM1	3	0.84	1.83	1.5	0.23	0.24
16	CYSTM1	4	0.71	2.75	2.7	0.12	0.08
17	CHURC1	1	0.59	1.02	1.1	0.6	0.62
18	CHURC1	2	0.76	3.28	2.77	0.16	0.16
19	CHURC1	3	0.29 (active)	0.7	1.56	0.35	0.12
20	CHURC1	4	0.3 (active)	0.4	0.84	0.28	0.54
21	FAM110C	1	0.48 (active)	1.7	2.49	-0.19	-0.11
22	FAM110C	2	0.74	2.71	2.7	0	0.13
23	FAM110C	3	0.6	1.81	2.12	-0.07	-0.01
24	FAM110C	4	1	4.04	2.89	-0.23	-0.09
25	MFAP3	1	0.53 (active)	1.27	1.6	0.42	0.25
26	MFAP3	2	0.74	1.78	1.62	0.01	0.13
27	MFAP3	3	0.78	1.08	0.94	0.38	0.65
28	MFAP3	4	0.74	1.17	1.06	0.9	0.92
29	DHPS	1	0.62	1.53	1.59	0.34	0.29
30	DHPS	2	0.72	1.88	1.73	0.41	0.3
31	DHPS	3	0.64	2.83	2.99	0.18	0.05
32	DHPS	4	4.95	56.6	6.11	-0.24	-0.1
33	PPIL3	1	0.81	1.69	1.38	0.46	0.62
34	PPIL3	2	0.76	2.96	2.55	0.23	0.09
35	PPIL3	3	0.86	2.92	2.2	0.21	0.15
36	PPIL3	4	0.53 (active)	0.76	0.94	1	0.95
37	GLRA1	1	0.68	2.29	2.02	0.09	0.16
38	GLRA1	2	0.48 (active)	1.73	2.1	0.44	0.33
39	GLRA1	3	0.51 (active)	1.27	1.49	0.55	0.5
40	GLRA1	4	0.57	1.24	1.27	0.22	0.2
41	TMEM128	1	0.46 (active)	0.86	1.21	0.07	0.11
42	TMEM128	2	0.7	3.97	3.56	0.05	0.02
43	TMEM128	3	0.48 (active)	0.86	1.14	0.4	0.26
44	TMEM128	4	0.68	1.02	0.94	1.1	1.19
45	EDC4	1	0.67	1.66	1.75	0.02	0.03
46	EDC4	2	0.81	2.42	2.02	0.1	0.16
47	EDC4	3	0.55	1.28	1.6	0.49	0.23
48	EDC4	4	0.38 (active)	1.2	2.13	0.4	0.01
49	TM9SF2	1	0.46 (active)	1.36	1.92	0.09	0.05
50	TM9SF2	2	0.74	1.13	1.01	0.68	0.84
51	TM9SF2	3	0.55	0.6	0.73	1.11	1.2
52	TM9SF2	4	0.58	0.73	0.82	0.81	1.17
53	CT47A6	1	0.55	0.98	1.27	0.79	0.76
54	CT47A6	2	0.65	1.29	1.46	0.66	0.62
55	CT47A6	3	0.7	1.99	2.04	0.33	0.22
56	CT47A6	4	0.34 (active)	0.44	0.94	0.8	0.63
57	HSF1	1	0.33 (active)	0.93	1.79	0.11	0.05
58	HSF1	2	0.34 (active)	0.5	0.92	0.38	0.54
59	HSF1	3	0.51 (active)	0.8	0.92	1.11	0.72
60	HSF1	4	0.66	1.23	1.08	0.3	0.44
61	ZNF585B	1	0.68	1.09	1.07	0.79	0.9
62	ZNF585B	2	0.45 (active)	0.84	1.27	0.01	0.04
63	ZNF585B	3	0.54 (active)	1.18	1.48	0.28	0.3
64	ZNF585B	4	0.76	1.21	1.08	0.09	0.15

Reformatted: results already given.
{"Gene":"TMEM128","reagent":4,"lactate per cell, drug vs no drug":0.68,"lactate per cell with vemurafenib":1.02,"lactate per cell without drug":0.94,"cell growth with vemurafenib":1.1,"cell growth without drug":1.19}
{"Gene":"EDC4","reagent":1,"lactate per cell, drug vs no drug":0.67,"lactate per cell with vemurafenib":1.66,"lactate per cell without drug":1.75,"cell growth with vemurafenib":0.02,"cell growth without drug":0.03}
{"Gene":"EDC4","reagent":2,"lactate per cell, drug vs no drug":0.81,"lactate per cell with vemurafenib":2.42,"lactate per cell without drug":2.02,"cell growth with vemurafenib":0.1,"cell growth without drug":0.16}
{"Gene":"EDC4","reagent":3,"lactate per cell, drug vs no drug":0.55,"lactate per cell with vemurafenib":1.28,"lactate per cell without drug":1.6,"cell growth with vemurafenib":0.49,"cell growth without drug":0.23}
{"Gene":"EDC4","reagent":4,"lactate per cell, drug vs no drug":"0.38 (active)","lactate per cell with vemurafenib":1.2,"lactate per cell without drug":2.13,"cell growth with vemurafenib":0.4,"cell growth without drug":0.01}
{"Gene":"TM9SF2","reagent":1,"lactate per cell, drug vs no drug":"0.46 (active)","lactate per cell with vemurafenib":1.36,"lactate per cell without drug":1.92,"cell growth with vemurafenib":0.09,"cell growth without drug":0.05}
{"Gene":"TM9SF2","reagent":2,"lactate per cell, drug vs no drug":0.74,"lactate per cell with vemurafenib":1.13,"lactate per cell without drug":1.01,"cell growth with vemurafenib":0.68,"cell growth without drug":0.84}
{"Gene":"TM9SF2","reagent":3,"lactate per cell, drug vs no drug":0.55,"lactate per cell with vemurafenib":0.6,"lactate per cell without drug":0.73,"cell growth with vemurafenib":1.11,"cell growth without drug":1.2}
{"Gene":"TM9SF2","reagent":4,"lactate per cell, drug vs no drug":0.58,"lactate per cell with vemurafenib":0.73,"lactate per cell without drug":0.82,"cell growth with vemurafenib":0.81,"cell growth without drug":1.17}
{"Gene":"CT47A6","reagent":1,"lactate per cell, drug vs no drug":0.55,"lactate per cell with vemurafenib":0.98,"lactate per cell without drug":1.27,"cell growth with vemurafenib":0.79,"cell growth without drug":0.76}
